# The list shows a part of the results.
# Tested on: T1, CTL2-GFP (C. trachomatis L2/434/Bu, GFP-expressing)
# T1 construct: L2/434/Bu, GFP-expressing
# Parameters: species or system HeLa; Intracellular C. trachomatis growth in HeLa cells, bulk GFP fluorescence relative to DMSO
# Details: bulk GFP, single well; 28.5 h, 10 µM; inhibitor
row,Compound,% of control remaining
1,C=C(C)CNC(=O)c1cc(Br)cnc1N(C)S(C)(=O)=O [CBK076498],125.299%
2,CC(C(=O)N1CCC2(CC1)NC(=O)c1ccccc1N2)(c1ccccc1)c1ccccc1 [CBK286308],26.0712%
3,CCSc1nnc2c(n1)OC(C)Nc1ccccc1-2 (centres unmarked) [CBK025684],158.915%
4,Cc1cc(O)c(C(=O)Nc2cccc(Cl)c2)c(=O)n1Cc1ccccn1 [CBK287729],125.929%
5,CC(C)c1ccc(C2C(C(=O)c3ccco3)=C(O)C(=O)N2CCCN(C)C)cc1 (centres unmarked) [CBK264549],117.6%
6,N#Cc1c2c(c(NCCN3CCCCC3)n3c1nc1ccccc13)CCC2 [CBK263140],85.9248%
7,C/N=c1\cccccc1NC [CBK022788],108.145%
8,O=C(O)COC(=O)C1C(c2ccccc2)C(C(=O)O)C1c1ccccc1 (centres unmarked) [CBK263881],147.294%
9,COc1cccc(OCc2cnc(-c3ccc(Cl)cc3)c(-c3cccc(CNC(C)=O)c3)c2)c1 [CBK165225],130.896%
10,COc1cccc(C(=O)N2CCC(Cc3ccccc3-c3ccccc3)(C(N)=O)CC2)c1 [CBK285729],114.634%
11,C[C@H](Oc1cncc(N2CCNCC2)n1)c1ccccc1Cl [CBK172341G],81.0891%
12,c1coc(CN2CCC(c3ccc4c(c3)OCO4)CC2)c1 [CBK284001],71.6442%
13,COC(=O)c1c(NC(=O)C2CC=CCC2C(=O)O)sc2c1CCC(C)C2 (centres unmarked) [CBK262655],111.662%
14,Cc1nc(C)c(C(=O)N2CCCc3ccccc32)s1 [CBK200345],121.113%
15,Cc1cnc(CNS(=O)(=O)c2ccc(F)cc2)cn1 [CBK050489],139.256%
16,CC(C)C(=O)N1C[C@H]2NC(=O)c3ccccc3C(=O)[C@@]2(C)C1 [CBK281658],86.9703%
17,CN(C)S(=O)(=O)c1cccc(C(=O)NCc2ccco2)c1 [CBK270135],140.703%
18,Nc1nc2cc3c(cc2[nH]1)OCO3 [CBK023191],88.3128%
19,COc1cccc(N(CC(=O)Nc2ccccc2Cl)S(=O)(=O)c2ccc(C)cc2)c1 [CBK263791],116.588%
20,COc1ccc([C@H]2CN(Cc3ccccc3)C[C@@H]2NC(=O)CCc2ccco2)cc1 [CBK286477],110.011%
21,O=C(COc1ccc(Br)cc1C(=O)O)Nc1ccc(F)cc1 [CBK286671],110.645%
22,Nc1cc2c(cc1Cl)C(=O)NC2=O [CBK028783],101.414%
23,CCN(CC)CCN(Cc1ccc2c(c1)OCO2)C(=O)Nc1ccc2[nH]ccc2c1 [CBK159037],103.025%
24,Cn1c(=O)c2ncn(CC(=O)Nc3ccc(N4CCN(Cc5ccccc5)CC4)cc3)c2n(C)c1=O [CBK266875],131.862%
25,CC(=O)N1CCC(N2C[C@H](O)C[C@H]2c2nc(-c3cccc([N+](=O)[O-])c3)no2)CC1 [CBK288846],156.093%
26,Cc1c(Cc2ccccc2)c(N2CCN(C/C=C/c3ccccc3)CC2)n2c(nc3ccccc32)c1C#N [CBK263112],112.019%

row,Compound,% of control remaining
1,Nc1ccc(-c2cc(N)n(-c3ccc(Oc4ccccc4)c(S(=O)(=O)O)c3)n2)cc1 [CBK261563],120.095%
2,CN(Cc1nccs1)C(=O)c1cccc(OCC(=O)N2CCCCC2)c1 [CBK307478],111.485%
3,Cc1ccc(S(=O)(=O)Nc2ccsc2C(=O)Nc2ccc(F)cc2)cc1 [CBK004571],102.113%
4,CC1CC(/N=C2/NCCS2)CC(C)(C)C1 (centres unmarked) [CBK020293],131.869%
5,CC1(C(C)(O)C(F)F)OC(NC2C3CC4CC(C3)CC2C4)=NC1=O (centres unmarked) [CBK137190],107.581%
6,CN(C)C(=O)CSc1nnc(-c2cccc3ccccc23)n1-c1ccccc1 [CBK266044],167.782%
7,Nc1ccc(C(=O)Nc2ccc(-c3nc4ccc(NC(=O)c5ccc(N)cc5)cc4[nH]3)cc2)cc1 [CBK261147],75.2432%
8,CC(=O)Nc1ccc(Nc2nc(-c3ccc(O)cc3)cn3ccnc23)cc1 [CBK037992],124.11%
9,COC(=O)N1CC2(CCCCC2NCC2CCCO2)c2ccccc21 (centres unmarked) [CBK083541T],110.392%
10,COc1ccc(-c2csc(Nc3cccc(C(=O)O)c3)n2)cc1 [CBK286924],115.924%
11,O=C(O)c1ccc(Oc2ccc3c(c2)C(=O)N(c2nccs2)C3=O)cc1 [CBK261200],110.544%
12,Cn1ccc(C(=O)N2CCCC3(C/C=C/Cc4ccccc4OCC(=O)NC3)C2)cc1=O (centres unmarked) [CBK292179],142.616%
13,O=C(O)c1cccc(-c2ccc(Nc3cccc(NC(=O)c4ccncc4)c3)nc2)c1 [CBK037776],184.994%
14,O/N=C1\CC2(CCCCC2)c2ccccc21 [CBK013318],132.25%
15,CC(=O)Nc1ccc(CN[C@@H]2CCC[C@H]2Cc2cc(C)no2)cc1 [CBK285459],150.997%
16,CC(C)n1cc(C(=O)N2CCCC(c3cc4ncccc4[nH]3)C2)cn1 (centres unmarked) [CBK283419],124.373%
17,Cn1nnnc1SCCNC(=O)Nc1cccc(CN2CCCCC2)c1 [CBK306872],111.423%
18,O=S(=O)(Nc1ccc(Cl)c(Cl)c1)c1ccc(Cl)c(Cl)c1 [CBK044838],88.0139%
19,COCCN1CCC(CNC(=O)Nc2cc(C)ccc2F)C1 (centres unmarked) [CBK304631],110.57%
20,COCCCn1c(=O)[nH]c2ncc(-c3cnc(OC)nc3)nc21 [CBK064618],100.055%
21,CCCc1nn(CC(=O)N(CC)CC)c(=O)c2cc3ccsc3n12 [CBK284192],76.4211%
22,O=C(O)c1cccc(NCC(=O)c2ccccc2)c1 [CBK287163],120.356%
23,COc1ccc(CNC(=O)CN2CCCC(Cn3cncn3)C2)cc1 (centres unmarked) [CBK305339],128.654%
24,COc1cc(Nc2cccc(-c3ccc4ccccc4c3)n2)cc(OC)c1OC [CBK037612],98.2705%
25,Cc1cccnc1NC(=O)C1CCCN1S(=O)(=O)c1ccc(Cl)cc1 (centres unmarked) [CBK269914],147.42%
26,CC(=O)N1CCC(C(=O)NC(=O)NCc2ccc3c(c2)CCO3)CC1 [CBK034837],95.1019%

row,Compound,% of control remaining
1,Cc1n[nH]cc1-c1nsc(Nc2ccccc2)n1 [CBK113680],66.101%
2,CCOc1cccc(CNc2ccc(N3CCOCC3)c(C(=O)O)c2)c1 [CBK269973],92.3929%
3,COc1cc(CN2Cc3cccc(C(=O)O)c3C2=O)cc(OC)c1OC [CBK291227],108.186%
4,COCCn1c(SCc2ccc([N+](=O)[O-])cc2)nc2c([nH]c3ccccc32)c1=O [CBK294415],162.137%
5,CN1CCC[C@H]1C(=O)N1CCCC2(CCN(Cc3ccccc3)C2)C1 (some centres unmarked) [CBK136901],79.8198%
6,O=C(O)c1[nH]c2ccccc2c1NS(=O)(=O)c1cc(F)c(Br)cc1F [CBK049885],136.556%
7,COc1ccc(NC(=O)N[C@H]2[C@H](O)[C@@H](N3CCOCC3)[C@@H]3OC[C@H]2O3)cc1 [CBK288820],126.035%
8,N#Cc1c(NC(=O)c2ccc(C(=O)O)cc2C(=O)O)sc2c1CCCC2 [CBK262722],129.473%
9,CCOc1ccc(C(=O)C2=C(O)C(=O)N(CCN(C)C)C2c2cccnc2)cc1Cl (centres unmarked) [CBK266585],134.748%
10,CC(=O)N[C@H]1C[C@@H](Cc2cc(CN3CCN(c4ccccc4)CC3)on2)C1(C)C [CBK289241],117.541%
11,c1ccc2[nH]c(CCCCCc3nc4ccccc4[nH]3)nc2c1 [CBK267694],111.16%
12,O=C(O)CSc1nnc(C2COc3ccccc3O2)n1-c1ccccc1 (centres unmarked) [CBK263832],84.9732%
13,CCOC(=O)C1(C2CCCCC2)CCN(C(=O)C(c2ccccc2)c2ccccc2)CC1 [CBK136943],94.7881%
14,O=[N+]([O-])c1cc(/C=N/Nc2nc(N3CCOCC3)nc(N3CCOCC3)n2)c(O)c([N+](=O)[O-])c1 [CBK261237],93.6936%
15,O=C(COc1ccc([N+](=O)[O-])cc1)Nc1ccc2oc(-c3ccc(Br)cc3)nc2c1 [CBK263444],88.4654%
16,Nc1ncc(-c2ccc(C(=O)O)cc2)nc1-c1ccc(C(=O)N2CCOCC2)cc1 [CBK084518],113.632%
17,NC(=O)C1(Cc2cccc(-c3cccs3)c2)CCN(C(=O)CCc2ccccc2)CC1 [CBK285782],131.357%
18,FC(F)(F)c1cc(NCCC2CCCCN2)cc(C(F)(F)F)c1 (centres unmarked) [CBK016963],113.249%
19,O=C(Nc1ncccn1)C1CCCCC1 [CBK027567],160.292%
20,Fc1ccc(-c2cncc(NCCCN3CCOCC3)n2)c(F)c1 [CBK065867],119.185%
21,CCN(Cc1ccc(C#N)cc1F)C(=O)Nc1cnn(CC)c1 [CBK305702],98.7733%
22,Cc1cc(C)n(C(C)CNC(=O)C(C)Cn2cccn2)n1 (centres unmarked) [CBK281639],127.285%
23,CCC(=O)N1CCCc2cc(C(O)CN3CCCCC3)ccc21 (centres unmarked) [CBK282130],140.013%
24,COc1cccc(COc2nccnc2/C=C/c2ccccc2)c1OC [CBK106888],100%
25,CC1CCCCC1NC(=O)CSc1nnc(CN2CCOCC2)n1C (centres unmarked) [CBK266662],124.464%

# Sorted by count of non-hydrogen atoms (high to low): 4 of the compounds above
row,Compound,% of control remaining
13,CCOC(=O)C1(C2CCCCC2)CCN(C(=O)C(c2ccccc2)c2ccccc2)CC1 [CBK136943],94.7881%
16,Nc1ncc(-c2ccc(C(=O)O)cc2)nc1-c1ccc(C(=O)N2CCOCC2)cc1 [CBK084518],113.632%
8,N#Cc1c(NC(=O)c2ccc(C(=O)O)cc2C(=O)O)sc2c1CCCC2 [CBK262722],129.473%
22,Cc1cc(C)n(C(C)CNC(=O)C(C)Cn2cccn2)n1 (centres unmarked) [CBK281639],127.285%

# From PMC12040169 (PLOS Biology, 2025)
